This passage reports binding results from publication PMC2994906 (PLoS ONE, 2010).

No constants are given. Whether binding was seen depends on the method and setting. Some results given as binding are weak or reduced against the parent protein; the word gives no strength. No end group written: not given here.

For assay [1], the target named is hRARα/mRXRα LBD heterodimer (human | mouse) (UniProt P10276+P28700). Briefly: SAXS; RARα-atRA/RXRα-LG100754 LBDs in solution, at least three protein concentrations from 2 to 5 mg/ml; Rg and Dmax compared with dimeric and tetrameric models; both purified.
Assay [2] concerns the target T1, TAMRA-labeled SRC-1 NR2 peptide (686-RHKILHRLLQEGS-698) (also: TAMRA label, position not given here).
T1 construct: also called (TAMRA) – SRC-1 NR2 peptide; source: bought: Neosystem (Strasbourg, France)
T1 peptide: RHKILHRLLQEGS
Briefly: fluorescence polarisation; fluorescence anisotropy; hRARα/mRXRα LBDs added to a fixed concentration of TAMRA-SRC-1 NR2 peptide; 20°C; 10 mM TRIS-HCl pH 7.5, 150 mM NaCl, 10 mM DTT; heterodimer bound to HX531; both purified. (In general: Fluorescence polarisation rises when a labelled molecule tumbles more slowly, as on binding a larger partner.)

B1: hRARα/mRXRα LBD heterodimer (complex, human | mouse)
chain 1: MSKESVRNDRNKKKKEVPKPECSESYTLTPEVGELIEKVRKAHQETFPALCQLGKYTTNNSSEQRVSLDIDLWDKFSELSTKCIIKTVEFAKQLPGFTTLTIADQITLLKAACLDILILRICTRYTPEQDTMTFSDGLTLNRTQMHNAGFGPLTDLVFAFANQLLPLEMDDAETGLLSAICLICGDRQDLEQPDRVDMLQEPLLEALKVYVRKRRPSRPHMFPKMLMKITDLRSISAKGAERVITLKMEIPGSMPPLIQEMLENSEGLD
chain 2: TSSANEDMPVEKILEAELAVEPKTETYVEANMGLNPSSPNDPVTNICQAADKQLFTLVEWAKRIPHFSELPLDDQVILLRAGWNELLIASFSHRSIAVKDGILLATGLHVHRNSAHSAGVGAIFDRVLTELVSKMRDMQMDKTELGCLRAIVLFNPDSKGLSNPAEVEALREKVYASLEAYCKHKYPEQPGRFAKLLLRLPALRSIGLKCLEHLFFFKLIGDTPIDTFLMEMLEAPHQAT
notes: Heterodimer formed beforehand; small-molecule ligands (atRA, LG100754, AM580, BMS614, BMS649, 9-cisRA, HX531) differ between experiments and are named in the assays; also called RARα/RXRα LBD; RAR/RXR; not shown: His6, N-terminal, kept; copies: 1 + 1
As to B1, the binding entry in assay [1] was “no binding (tested: 2 to 5 mg/ml)”; in assay [2], “binds”.
